{"source": "PubChem BioAssay AID743454 (Peter MacCallum Cancer Centre, 2014)", "purpose": "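Knock-downs lowering viability or raising caspase 3/7 activity in vorinostat-treated resistant cells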 (primary screen)", "cell system": "human HCT116-VR colon cancer cells, selected for vorinostat resistance", "knock-down reagent": "siRNA pool against human genes, 40 nM siRNA pool", "duration": "vorinostat for 24 h, read-out about 72 h after transfection", "conditions": "vorinostat at 2.5 µM final", "measured": "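Two measures, CellTiter-Fluor viability and luminescent caspase 3/7 activity, each as fold change against same-plate mock wells, mean of duplicates, then screen-wide robust z-score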", "scale": "viability robust z-score: higher = more viable cells than screen typical; caspase robust z-score: higher = more caspase 3/7 activity than screen typical", "call rule": "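Hits are knock-downs in viability class RV1/RV2 or caspase class CA1/CA2, excluding ones that killed cells in the no-drug cell-count arm; hits then retested with single siRNAs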", "note": "In all, the deposit lists about 18,000 reagents; below is a part drawn at random. In the full data, 450 (2.5%) got an active call. 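Single biological run; no consistent viability z cut-off exists, so the class columns, not z-scores, define the calls.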 Unmarked entries are inactive."}
{"gene symbol": "ZNF134", "viability hit class": "no change", "caspase hit class": "no change", "viability robust z-score": 0.34, "caspase robust z-score": 1.27}
{"gene symbol": "SRCAP", "viability hit class": "no change", "caspase hit class": "no change", "viability robust z-score": -2.28, "caspase robust z-score": 0.68}
{"gene symbol": "ACE2", "viability hit class": "no change", "caspase hit class": "no change", "viability robust z-score": -0.01, "caspase robust z-score": -0.94}
{"gene symbol": "GTF2H2", "viability hit class": "no change", "caspase hit class": "no change", "viability robust z-score": -0.47, "caspase robust z-score": -0.86}

Part of the list above, reformatted:
| gene symbol | viability hit class | caspase hit class | viability robust z-score | caspase robust z-score |
| --- | --- | --- | --- | --- |
| ZNF134 | no change | no change | 0.34 | 1.27 |
| SRCAP | no change | no change | -2.28 | 0.68 |

The listing continues.
{"gene symbol": "RIT2", "viability hit class": "no change", "caspase hit class": "no change", "viability robust z-score": -0.78, "caspase robust z-score": 0.1}
{"gene symbol": "SPNS3", "viability hit class": "no change", "caspase hit class": "no change", "viability robust z-score": -0.06, "caspase robust z-score": 1.2}
{"gene symbol": "DLD", "viability hit class": "no change", "caspase hit class": "no change", "viability robust z-score": 0.62, "caspase robust z-score": 1.17}
{"gene symbol": "P4HA3", "viability hit class": "no change", "caspase hit class": "no change", "viability robust z-score": -1.51, "caspase robust z-score": -0.83}
{"gene symbol": "AP3B1", "viability hit class": "no change", "caspase hit class": "no change", "viability robust z-score": -1.89, "caspase robust z-score": 4.53}
{"gene symbol": "OR8G5", "viability hit class": "no change", "caspase hit class": "no change", "viability robust z-score": 0.34, "caspase robust z-score": 0.31}
{"gene symbol": "CD47", "viability hit class": "no change", "caspase hit class": "no change", "viability robust z-score": 0.74, "caspase robust z-score": 1.5}
{"gene symbol": "SLC5A5", "viability hit class": "no change", "caspase hit class": "no change", "viability robust z-score": -1.56, "caspase robust z-score": 1.9}
{"gene symbol": "NTAN1", "viability hit class": "no change", "caspase hit class": "no change", "viability robust z-score": -0.66, "caspase robust z-score": -0.6}
{"gene symbol": "LPIN1", "viability hit class": "no change", "caspase hit class": "no change", "viability robust z-score": 0.97, "caspase robust z-score": 1.84}
